## Results from one PubChem assay

Source: PubChem BioAssay AID1745848 (NCATS, 2022).

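HEK-293 cells carrying an ATXN2-luciferase reporter; luminescence signal loss after 24 h of compound exposure, with a parallel cell viability readout.
Compounds were tested as a dilution series from about 0.0037 to 57 µM.
The number is the fitted half-maximal inhibitory concentration (AC50); a lower value means a more potent inhibitor.
Calls come from curve class and activity score: actives score 40–100, while inconclusive compounds (weak, partial, poorly fitted or single-point curves) score 1–39.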

Values are in µM.
Every entry below has the call inconclusive.
These entries are mostly ones the record files as inconclusive; other results of the assay are not listed here.
A potency from a partial, single-point or poor curve is only a rough figure.
Activity scores are not listed here.

Compound,potency (µM),curve
O=C(Nc1ccc(F)cc1)c1sccc1SCc1cccc(C(F)(F)F)c1,28.18,"inhibitor, single point"
Cc1csc2c(N3CCN(C(=O)Nc4ccc(Cl)c(Cl)c4)CC3)ncnc12,3.548,"inhibitor, partial curve"
CCC(C)n1cnc2c(c1=O)c1nc3ccccc3nc1n2-c1ccc2c(c1)OCCO2 (stereo not drawn),5.012,"inhibitor, partial curve, poor fit"
CCc1ccc(C(O)c2ncc(-c3cccc(C(F)(F)F)c3)[nH]2)cc1 (stereo not drawn),25.12,"inhibitor, single point"
Cc1cc2c(N=O)c(NO)ccc2[nH]1,8.912,"inhibitor, partial curve, poor fit"
Cc1cccn2c(Nc3ccccc3)c(-c3ccccn3)nc12,10,"inhibitor, partial curve"
O=C(Nc1cccc(C(F)(F)F)c1)N1CCC(c2nc(-c3ccc(F)cc3)no2)CC1,15.85,"inhibitor, partial curve, poor fit"
Cc1cccc(NC(=O)c2ccc(S(=O)(=O)N(C)c3ccccc3)cc2)n1,25.12,"inhibitor, single point"
CN1CCN(c2nc(-c3ccccn3)nc3ccccc23)CC1,31.62,"inhibitor, single point"
Cc1cccc(OCCSc2nc3ncnc(N)c3[nH]2)c1,28.18,"inhibitor, single point"
CN(C)CCNC(=O)c1cccc(-c2cnc3c(NC=O)cc(-c4cccs4)cn23)c1,35.48,"inhibitor, single point"
CC(=NCCc1c[nH]c2ccccc12)c1c(O)n(Cc2ccccc2)c(=O)[nH]c1=O,14.13,"inhibitor, single point"
O=C(Cc1ccccc1)N/N=C/c1cc(Br)cc(Br)c1O,4.467,"inhibitor, single point"
CCOc1ccc(C(=O)Nc2ccc(Cc3ccncc3)cc2)cc1Br,31.62,"inhibitor, single point"
Cc1nn(C)c(C)c1NC(=O)CSc1nc(Cc2ccccc2)nc2c1cnn2-c1ccccc1,3.162,"inhibitor, single point"
CCCCC(=O)NNC(=S)NC(=O)c1ccc(C)cc1,2.512,"inhibitor, partial curve"
CCOC(=O)c1c(C)sc2c1N(C(=O)CN(CC)CC)c1cc(Cl)ccc1S2,31.62,"inhibitor, partial curve, poor fit"
CC(=O)NC(c1cccs1)c1cc([N+](=O)[O-])c2cccnc2c1O (stereo not drawn),7.08,"inhibitor, full curve, poor fit"
C=CCc1cccc(/C=N/NC(=O)c2ccccc2Br)c1O,17.78,"inhibitor, partial curve, poor fit"
COc1cc(/C=C/C(=O)Nc2ccc(OC)c(S(=O)(=O)N3CCOCC3)c2)ccc1OCC#N,3.162,"inhibitor, partial curve, poor fit"
Cc1c(-c2cccc(Cl)c2)nc2ccccc2c1C(=O)OC/C(O)=C(\C#N)c1nc2ccccc2[nH]1,12.59,"inhibitor, partial curve, poor fit"
CCC(c1nnnn1-c1ccc2c(c1)OCCO2)N1CCC(n2c(=O)[nH]c3ccccc32)CC1 (stereo not drawn),2.818,"inhibitor, partial curve"
Cc1nc(N=C(N)N)nc2c(C)cccc12,15.85,"inhibitor, partial curve, poor fit"
CCCCN(C(=O)c1cccc2c(=O)c(C)c(-c3ccccc3)oc12)c1ccccc1,31.62,"inhibitor, single point"
O=C(O)CSc1cc(NS(=O)(=O)c2ccc(Cl)cc2)c2ccccc2c1O,28.18,"inhibitor, partial curve, poor fit"
CSc1sc(C(=O)NN)c2c1C1(CCC2)SCCS1,25.12,"inhibitor, partial curve, poor fit"
Cc1nc2ccccc2c(=O)n1/N=C/c1cc(Br)cc(Br)c1O,19.95,"inhibitor, single point"
CCOC(=O)c1ccccc1NC(=O)CSc1nc2ccccc2c(=O)n1CCCN1CCOCC1,28.18,"inhibitor, partial curve, poor fit"
CCc1ccc(-n2cc(-c3ccc(F)cc3)[n+]3c2SCCC3)cc1,14.13,"inhibitor, partial curve, poor fit"
Cc1nc2c(OCc3ccc(C(F)(F)F)cc3)cccn2c1N(C)CC1CC1,3.548,"inhibitor, single point"
CC(C)C(CCNCc1ccccn1)c1ccc(Cl)cc1 (stereo not drawn),17.78,"inhibitor, partial curve"
CN1CCN(c2ccccc2NC(=O)c2ccc(-c3ccc(Cl)c(Cl)c3)o2)CC1,25.12,"inhibitor, partial curve, poor fit"
Cc1cccc(N2CCN(C(=O)CNC(=O)Cc3ccccc3)CC2)c1C,3.162,"inhibitor, single point"
O=C(c1ccc(S(=O)(=O)c2cccc(Cl)c2)c([N+](=O)[O-])c1)N1CCN(Cc2ccccc2)CC1,25.12,"inhibitor, partial curve, poor fit"
CC1(C)Cc2ccccc2C2=NNC(=O)C2=N1,14.13,"inhibitor, partial curve, poor fit"

3 of the entries, repeated:

Compound,potency (µM),curve
CCOc1ccc(C(=O)Nc2ccc(Cc3ccncc3)cc2)cc1Br,31.62,"inhibitor, single point"
O=C(O)CSc1cc(NS(=O)(=O)c2ccc(Cl)cc2)c2ccccc2c1O,28.18,"inhibitor, partial curve, poor fit"
Cc1nn(C)c(C)c1NC(=O)CSc1nc(Cc2ccccc2)nc2c1cnn2-c1ccccc1,3.162,"inhibitor, single point"